US20250345370A1, “MICROBIAL LIBERATION OF N-METHYLSEROTONIN FROM ORANGE FIBER” (Washington University, priority 2022, published 2025)
Further values from the same series stand in other lists.

Tested on: colon gene expression
Test: RNA-Seq of colonic tissue of germ-free mice treated with 50 mg/kg/d N-methylserotonin
Format: in vivo, germ-free C57BL/6J mice
Settings: colon

CNCCc1c[nH]c2ccc(O)cc12 [N-methylserotonin]
log2 fold-change (gene Smtn): 0.31
log2 fold-change (gene Snord17): −0.67
log2 fold-change (gene Snph): 0.59
log2 fold-change (gene Sowahc): −0.42
log2 fold-change (gene Sp3): −0.25
log2 fold-change (gene Sprr2a3): −0.89
log2 fold-change (gene Spryd3): 0.38
log2 fold-change (gene Sptlc2): −0.30
log2 fold-change (gene Srgap3): 0.41
log2 fold-change (gene Ssc5d): 0.94
log2 fold-change (gene St3gal6): −0.82
log2 fold-change (gene St8sia5): −1.14
log2 fold-change (gene Steap4): −0.63
log2 fold-change (gene Stom): −0.64
log2 fold-change (gene Styk1): −0.33
log2 fold-change (gene Sult1b1): −0.53
log2 fold-change (gene Sval1): −0.90
log2 fold-change (gene Svil): 0.29
log2 fold-change (gene Svs1): 8.01
log2 fold-change (gene Svs2): 8.79
log2 fold-change (gene Svs3a): 7.68
log2 fold-change (gene Svs3b): 8.03
log2 fold-change (gene Svs4): 8.34
log2 fold-change (gene Svs5): 7.81
log2 fold-change (gene Svs6): 7.66
log2 fold-change (gene Syngr1): 0.50
log2 fold-change (gene Synj2bp): −0.39
log2 fold-change (gene Tank): −0.46
log2 fold-change (gene Tax1bp1): −0.24
log2 fold-change (gene Tbc1d16): 0.37
log2 fold-change (gene Tbc1d30): 0.39
log2 fold-change (gene Tbx3): 1.10
log2 fold-change (gene Tcaf3): 11.09
log2 fold-change (gene Tcf23): 0.69
log2 fold-change (gene Tecpr1): 0.34
log2 fold-change (gene Tef): 0.72
log2 fold-change (gene Tent5a): −0.43
log2 fold-change (gene Tff3): −0.39
log2 fold-change (gene Tfrc): −0.40
log2 fold-change (gene Tgfb1i1): 0.54
log2 fold-change (gene Tgm3): −1.21
log2 fold-change (gene Thbs4): −0.62
log2 fold-change (gene Tinag): −0.53
log2 fold-change (gene Tle3): 0.34
log2 fold-change (gene Tlr1): −0.34
log2 fold-change (gene Tlr4): −0.58
log2 fold-change (gene Tm4sf20): −0.54
log2 fold-change (gene Tm6sf2): −0.61
log2 fold-change (gene Tmem37): −0.93
log2 fold-change (gene Tmem45b): −0.53
log2 fold-change (gene Tmem168): −0.48
log2 fold-change (gene Tmem236): −0.43
log2 fold-change (gene Tnip3): −1.18
log2 fold-change (gene Tnk2): 0.56
log2 fold-change (gene Tnks1bp1): 0.36
log2 fold-change (gene Tnni1): −1.14
log2 fold-change (gene Tns2): 0.57
log2 fold-change (gene Tnxb): 0.50
log2 fold-change (gene Top2a): −0.42
log2 fold-change (gene Tpd52l1): 1.19
log2 fold-change (gene Tpm2): 0.30
log2 fold-change (gene Trf): −0.35
log2 fold-change (gene Trmt1l): −0.43
log2 fold-change (gene Trpm6): −0.72
log2 fold-change (gene Tsku): 0.48
log2 fold-change (gene Tspan1): −0.41
log2 fold-change (gene Tspan3): −0.37
log2 fold-change (gene Ttc9c): −0.31
log2 fold-change (gene Ttll10): 0.60
log2 fold-change (gene Tubb2a): 0.36
log2 fold-change (gene Tubgcp4): −0.36
log2 fold-change (gene Tyms): −0.45
log2 fold-change (gene Ubald1): 0.67
log2 fold-change (gene Umad1): −0.44
log2 fold-change (gene Usp2): 0.51
log2 fold-change (gene Usp53): −0.34
log2 fold-change (gene Vasn): 0.62
log2 fold-change (gene Vsig1): −1.14
log2 fold-change (gene Vsig2): 0.69
log2 fold-change (gene Wdr6): 0.46
log2 fold-change (gene Wdr46-ps): 1.52
